Laboratory results as given in PubChem BioAssay AID901 (National Center for Advancing Translational Sciences (NCATS), 2007).
The other results are listed elsewhere or left out. Shown are side measurements of this screen, not its main read-out; they come without a call. Compounds called inactive in the main read-out are mostly missing here. Potencies come from curve fits of mixed quality, noted in brackets.

Assay: qHTS Assay for Identifying the Cell-Membrane Permeable IMPase Inhibitors
Conditions: CHO-M1 cells, IP1 accumulation, HTRF TR-FRET ratio; measured here: donor channel 620 nm AC50

Row | Structure (SMILES) | AC50
1 | Cc1cnc(C(=O)Nc2cccc3ncccc23)cn1 | 0.398 µM [falling, full curve]
2 | OCCN1CCN(c2nc(NCc3ccco3)c3ccccc3n2)CC1 | 0.2 µM [rising, single point]
3 | CCOc1cc(C(Nc2cc(C)ccn2)c2ccc3cccnc3c2O)ccc1OC (stereo not drawn) | 2.51 µM [falling, single point]
4 | Cc1ccc(Cn2nnc3c(=O)n(Cc4ccccc4C)cnc32)cc1 | 5.62 µM [rising, single point]
5 | O=C(Cn1cnc2ccccc2c1=O)c1c[nH]c2ccccc12 | 6.31 µM [falling, full curve, poor fit]
6 | Cc1noc(NS(=O)(=O)c2ccc(NC(=O)COc3ccccc3)cc2)c1C | 3.55 µM [rising, single point]
7 | CCOC(=O)C1=C(C)NC(C)=C(C(=O)OCC)C1C1=COCCO1 | 0.0501 µM [rising, partial curve, poor fit]
8 | COc1cc(NS(=O)(=O)c2ccc(Br)cc2)c(OC)cc1NC(=O)c1ccco1 | 3.98 µM [falling, full curve, poor fit]
9 | Clc1ccc(CSc2ncn(-c3ccccc3)n2)cc1 | 3.98 µM [rising, partial curve]
10 | Cc1nn(C)c(C)c1/C=N/N=C1\CCC2C3CCc4cc(O)ccc4C3CCC12C (stereo not drawn) | 1 µM [falling, full curve, poor fit]
11 | CCCc1nc(N2CCCC2)c(C#N)c2c1CCCC2 | 1 µM [falling, full curve, poor fit]
12 | CCn1c(-c2nn(C)c(C)c2Cl)n[nH]c1=S | 0.2 µM [rising, single point]
13 | CCc1nc2ccccc2n1Cc1ccc(OC)c(OC)c1 | 31.6 µM [falling, single point]
14 | O=C(Cn1cc(C(F)(F)F)ccc1=O)N1CCN(S(=O)(=O)c2ccccc2)CC1 | 3.98 µM [rising, single point]
15 | O=C(CSc1nc(-c2ccccc2Cl)ns1)NCc1ccco1 | 0.0631 µM [rising, full curve, poor fit]
16 | COc1ccc(NC(=O)c2nc[nH]c2C(=O)Nc2ccccc2C)cc1 | 0.794 µM [rising, single point]
17 | CC(=O)Nc1cc(C(C)C)c(O)c(C(C)C)c1 | 31.6 µM [falling, single point]
18 | COc1ccc(C(=O)NCCn2cc(SCC(=O)N3CCOCC3)c3ccccc32)cc1 | 1.58 µM [falling, full curve, poor fit]
19 | COc1ccc(C=O)cc1CSc1nnc(COc2cccc3cccnc23)o1 | 1 µM [falling, full curve]
20 | Cc1onc(-c2ccccc2)c1C(=O)NCCN1CCOCC1 | 0.0891 µM [falling, full curve]
21 | Cc1cc(NC(=O)CCCC(=O)O)nc(C)n1 | 3.16 µM [rising, single point]
22 | COc1ccccc1NC(=O)Cn1c(=O)sc2ccccc21 | 12.6 µM [rising, single point]
23 | COc1ccc(-c2nc(=S)[nH][nH]2)cc1 | 3.98 µM [falling, full curve]

Row | Structure (SMILES) | AC50
24 | N/C(=N\OC(=O)c1ccc(Cl)cc1)c1cccnc1 | 0.794 µM [falling, full curve, poor fit]
25 | Cc1cccc(C)c1OCC(=O)Nc1cccc(NC(=O)c2ccco2)c1 | 0.0631 µM [falling, single point]
26 | CN(C(=O)c1ccc2c(c1)OCO2)C1(C(=O)NC2CCCC2)CCCCC1 | 7.94 µM [rising, partial curve, poor fit]
27 | Cc1cc2n(n1)SC(Nc1ccc(F)cc1)N2 (stereo not drawn) | 22.4 µM [rising, partial curve, poor fit]
28 | Cc1cc(C)cc(OCC(=O)Nc2ccc(N3CCCC3)cc2)c1 | 3.16 µM [rising, partial curve, poor fit]
29 | CCCc1cc(Nc2cccc(OC)c2)n2ncnc2n1 | 35.5 µM [falling, single point]
30 | COc1ccc(OC)c(-c2cc(C(=O)N3CCCc4ccccc43)no2)c1 | 0.398 µM [falling, full curve, poor fit]
31 | C=CCn1c(N)c(S(=O)(=O)c2cccs2)c2nc3ccccc3nc21 | 0.0631 µM [falling, full curve, poor fit]
32 | COc1ccc2[nH]c(=O)c(COC(=O)c3ccco3)cc2c1 | 31.6 µM [rising, single point]
33 | CCOC(=O)c1ccc(NC(=O)CSc2nccn2C)cc1 | 31.6 µM [falling, single point]
34 | C(=C\c1ccccc1)/C=N/Nc1nc2ccccc2[nH]1 | 0.0251 µM [falling, full curve]
35 | CCc1ccc2c(c1)cc(CN(C(=S)Nc1ccccc1Cl)C1CC1)c1nnnn12 | 25.1 µM [rising, single point]
36 | COc1ccc(CCN=CC2=C(O)CC(C)(C)CC2=O)cc1 | 10 µM [falling, partial curve]
37 | CCOC(=O)N1CCN(S(=O)(=O)c2ccc3[nH]cc(C(=O)O)c(=O)c3c2)CC1 | 2.51 µM [falling, partial curve, poor fit]
38 | CC(NC(=O)C1CCN(S(=O)(=O)N2CCCCCC2)CC1)c1ccccc1 (stereo not drawn) | 0.794 µM [falling, full curve, poor fit]
39 | Cc1ccc(N/N=C/c2c(O)cc(C)oc2=O)cc1 | 15.8 µM [falling, single point]
40 | CC(=O)CSc1nc(C(F)(F)F)cc(=O)n1-c1ccccc1 | 1.26 µM [falling, full curve, poor fit]
41 | Cc1ccc(C(=O)N/N=C\c2cccn2C)cn1 | 12.6 µM [falling, partial curve]
42 | COc1ccc(-c2nc3n(n2)C(c2ccc(OC)cc2)C(C(=O)Nc2cccnc2)=C(C)N3)cc1 (stereo not drawn) | 20 µM [falling, single point]
43 | COc1ccc(C/C(N)=N/OC(=O)Cc2ccccc2)cc1 | 5.01 µM [falling, single point]
44 | CC(=O)SC(C)CC(=O)Nc1ccccc1 (stereo not drawn) | 20 µM [falling, partial curve, poor fit]
45 | COc1ccccc1NC(=O)NCCN1CCN(c2cccc(Cl)c2)CC1 | 2.82 µM [falling, full curve, poor fit]
46 | COc1ccccc1Cn1c(=S)[nH]c2cc(C(=O)NCCN3CCOCC3)ccc2c1=O | 39.8 µM [falling, partial curve, poor fit]

Row | Structure (SMILES) | AC50
47 | CCOC(=O)C1C(=O)OC2(CCCC2)C1C(=O)OCC (stereo not drawn) | 5.62 µM [falling, single point]
48 | COc1cccc2sc(NC(=O)c3ccc(Br)s3)nc12 | 31.6 µM [rising, single point]
49 | CCOC(=O)c1cc2c(=O)n3ccccc3nc2n(CC(C)C)c1=NC(=O)c1c(-c2c(F)cccc2Cl)noc1C | 17.8 µM [rising, single point]
50 | Cn1c(=O)oc2cc(S(=O)(=O)Nc3ccc4c(c3)OCCO4)ccc21 | 2.51 µM [falling, partial curve]
51 | C=C(C)c1cccc(C(C)(C)NC(=O)N2CCN(CC)CC2)c1 | 1.26 µM [rising, partial curve]
52 | N#Cc1c(-c2ccc(Cl)cc2)ccn2nc(CCC(=O)O)nc12 | 15.8 µM [falling, single point]
53 | Oc1ccc(N=Cc2ccc(O)c(O)c2)cc1 | 11.2 µM [falling, partial curve]
54 | CN1CCN(Cc2c(O)ccc3c2oc(=O)c2ccccc23)CC1 | 3.98 µM [rising, single point]
55 | C/C(=N\NC(=O)c1c(Cl)c(C)nn1C)c1cccc(NC(=O)COc2ccccc2)c1 | 0.1 µM [falling, full curve, poor fit]
56 | CCOC(=O)C1C(=O)CC(C)(O)C(C(=O)OCC)C1c1cccs1 (stereo not drawn) | 1 µM [falling, full curve, poor fit]
57 | CCOC(=O)CNC(=O)c1cn(C)c(=O)c2cc(OC)c(OC)cc12 | 7.94 µM [falling, partial curve]
58 | CCCCn1nnnc1NCc1ccc(OC)c(OC)c1OC | 10 µM [rising, partial curve, poor fit]
59 | CNc1cnn(-c2ccc(C)cc2)c(=O)c1Cl | 10 µM [falling, partial curve, poor fit]
60 | O=C(Nc1ccc(Br)cc1F)c1ccncc1 | 0.126 µM [falling, single point]
61 | COc1ccc(C2C(C(=O)NCCN3CCOCC3)c3ccccc3C(=O)N2C)cc1OC (stereo not drawn) | 3.16 µM [falling, full curve]
62 | COCCNC(=O)CSc1nc2ccccc2c(=O)n1CCCC(=O)NCc1ccccc1 | 0.0126 µM [rising, full curve, poor fit]
63 | O=S(=O)(Nc1ccccc1F)c1ccc2nsnc2c1 | 0.794 µM [falling, partial curve]
64 | CC1CCN(c2nncc3ccccc23)CC1 | 0.0158 µM [rising, full curve, poor fit]
65 | COc1ccc(N2C(=O)CC(Sc3nnc(-c4ccccc4)o3)C2=O)cc1 (stereo not drawn) | 12.6 µM [rising, single point]
66 | Cc1ccc2[nH]c3c(=S)nc[nH]c3c2c1 | 12.6 µM [rising, partial curve]
67 | Cc1cc(NC(=O)CCC(=O)N(c2ccccc2)C(C(=O)NC2CCCCC2)c2cccs2)no1 (stereo not drawn) | 1 µM [falling, full curve]
68 | Cc1cccc(OCC(=O)Nc2cc(C)on2)c1 | 0.0501 µM [rising, full curve, poor fit]

In the list so far, these contain a cyano group.
Row | Structure (SMILES) | AC50
11 | CCCc1nc(N2CCCC2)c(C#N)c2c1CCCC2 | 1 µM [falling, full curve, poor fit]
52 | N#Cc1c(-c2ccc(Cl)cc2)ccn2nc(CCC(=O)O)nc12 | 15.8 µM [falling, single point]

Look-ups from above.
For AC50, CCOC(=O)C1C(=O)OC2(CCCC2)C1C(=O)OCC (stereo not drawn) is listed with 5.62 µM [falling, single point]
For AC50, O=C(Nc1ccc(Br)cc1F)c1ccncc1 is listed with 0.126 µM [falling, single point]
For AC50, COc1ccc(C2C(C(=O)NCCN3CCOCC3)c3ccccc3C(=O)N2C)cc1OC (stereo not drawn) is listed with 3.16 µM [falling, full curve]
